Laboratory results: patent US20240132589A1
Where a chain is given by its changes, count along the chain named. No constants are given. Whether binding was seen depends on the method and setting. Some binding calls cover weakened binding; strength is not graded here.

Sequences of proteins named here, by UniProt entry; tags and fusion partners are left off. A change or cut given only in a name is not applied to a line headed by its entry.
UniProt Q8N423: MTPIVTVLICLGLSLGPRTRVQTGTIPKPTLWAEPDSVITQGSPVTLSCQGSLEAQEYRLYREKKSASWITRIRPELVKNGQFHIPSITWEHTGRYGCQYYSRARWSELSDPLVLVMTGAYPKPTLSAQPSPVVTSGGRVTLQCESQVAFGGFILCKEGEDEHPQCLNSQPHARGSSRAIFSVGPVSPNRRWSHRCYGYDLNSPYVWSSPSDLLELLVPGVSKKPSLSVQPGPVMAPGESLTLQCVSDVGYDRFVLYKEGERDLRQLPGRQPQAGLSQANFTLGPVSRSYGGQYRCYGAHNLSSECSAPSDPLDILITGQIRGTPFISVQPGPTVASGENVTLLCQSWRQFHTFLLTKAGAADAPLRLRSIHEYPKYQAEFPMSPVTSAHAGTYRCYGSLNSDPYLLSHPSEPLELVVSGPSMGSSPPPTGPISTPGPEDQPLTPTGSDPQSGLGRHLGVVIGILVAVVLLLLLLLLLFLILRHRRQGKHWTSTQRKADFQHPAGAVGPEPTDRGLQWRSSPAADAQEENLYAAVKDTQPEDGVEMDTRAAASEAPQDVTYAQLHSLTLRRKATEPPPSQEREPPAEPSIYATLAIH

B1: B2H4-41 (antibody, V domains shown)
VH: EVQLLESGGRLVQPGTSLRLSCAVSGFSLSTYAMSWVRQAPGKGLEWIGWIYNDGSTYYAAWAKGRFTISKDTSKTTLYLQMNSLTVEDTATYFCAREGDYIGYFNIWGQGTLVTVSS
VL: DIQMTQSPSSLSASVGDRVTITCQASQSIGSNLAWYQLKPGQRPKLLIYAAATLASGVPSRFKGSGSGTDFTLTISSLQSEDAATYYCQSYVSGSSDVAFGGGTEVVVK
B2: B2H4-51 (antibody, V domains shown)
VH: B1 VH with R10G, R19T, V24A, M82I, N83T, T86R, V87A
VL: B1 VL
B3: B2H4-45 (antibody, V domains shown)
VH: B1 VH
VL: DVVMTQTPSSVSAALGGTVTIKCQASQSIGSNLAWYQLKPGQRPKLLIYAAATLASGGSSRFKGSGSGTDFTLTISSLEPADAATYYCQSYVSGSSDVAFGGGTEVVVK
B4: B2H4-54 (antibody, V domains shown)
VH: B1 VH with R10G, R19T, V24A, M82I, N83T, T86R, V87A
VL: DIQMTQSPSSVSASVGDRVTITCQASQSIGSNLAWYQQKPGKAPKLLIYAAATLASGVPLRFSGSGSGTDFTLTISNLQPEDSATYYCQSYVSGSSDVAFGGGTKVEIK
B5: B2H4-13 (antibody, V domains shown)
VH: B1 VH with E1Q, L5E, L11V, T16R, V24A, L78V, Y79F, T86K, V87P, E88D
VL: B1 VL with Q3E, L11V, I21L, L38Q, R43A, S80P, A83F
B6: B2H4-25 (antibody, V domains shown)
VH: EVQLVESGGDLATPGGSLRLSCAVSGFSLSTYAMSWVRQAPGKGLEWVGWIYNDGSTYYAAWAKGRFTISKDTSKTTVYLQMTSLRAEDTALYFCAREGDYIGYFNIWGQGTLVTVSS
VL: B3 VL
B7: B2H4-24 (antibody, V domains shown)
VH: B6 VH
VL: B4 VL
B8: B2H4-35 (antibody, V domains shown)
VH: QVQLVESGGRVVQPGTPLRLSCAASGFSLSTYAMSWVRQAPGKGLEWVAWIYNDGSTYYAAWAKGRFTISRDTSKNTLYLQTNSLKPDDTAVYYCAREGDYIGYFNIWGQGTLVTVSS
VL: B3 VL

Biological target: Human LILRB2 on stably transduced HEK293T cells (human) (UniProt Q8N423)
Assay: flow cytometry, HEK293T cells stably expressing human LILRB2

binding, binds:
B1
B2
B3
B4
B5
B6
B7
B8

Biological target: Recombinant human LILRB2 protein (ELISA antigen) (human) (UniProt Q8N423)
Assay: ELISA, plate-coated recombinant human LILRB2

binding, binds:
B1
B2
B3
B4
B5
B6
B7
B8
